Some of the results follow.
B1: il2ra_site1_3nfp_normal_mot_HHH_b1_05462_000000101_0001_1_15_H_._HHH_b2_03114_0001_0000100004_0000001_0_af2pred_0001_af2pred_1 (protein)
chain: SSSSSEAKELVEELLEQVKELLEKGDPEEARRLFEEAMKIAAKFNDEEALELVREFAQDESSSSS
B2: il2ra_site2_2erj_normal_mot_HHH_eva_0050_af2_000000198_0001_43_62_H_._HHH_b2_01308_0001_0000300017_0000001_0 (protein)
chain: SSSSSSREEEVRELLERVEEALERGDLELVYELLNEALHIAAEAGDQELQELVAEFLERFSSSSS
B3: il2ra_site2_2erj_sap_28_mot_HHH_b1_02841_000000060_0001_43_57_H_._HHH_b2_04121_0001_0000100007_0000001_0_0001_af2pred_0001_1_af2pred_swapped (protein)
chain: SSSSDEEEEEARELLEEAKKISDPREALLVLLEAVALAVRGGDDELLEELSRLAHEVLERSSSSS
B4: il2ra_site2_3nfp_sap_31_mot_HHH_b1_02065_af2_000000205_0001_1_18_H_._HHH_b2_06072_0001_0000800053_0000001_0_0001 (protein)
chain: SSSSDEVDRLIIRAYELLLNGNPEEARKLLEEALELARELGDEELEKHIEEALKALKMSISSSSS
B5: il2ra_site2_2erj_normal_mot_af86707857d369f3e1d85dcabc5f9321_0001_000000201_0001_14_29_H_._HHH_b2_07982_0001_0000100002_0000001_0 (protein)
chain: SSSSSDEEREEAEELIEEARQIPDPERAAAVAISAAHLAARANDEELLEEIRELFVRIYESSSSS
B6: il2ra_site1_1z92_normal_mot_HHH_b1_00561_af2_000000294_0001_1_19_H_._HHH_b2_04201_af2_0001_0000700058_0000001_0_af2pred_0001_af2pred_1 (protein)
chain: SSSSNKEEKLAKIIVRILIRLAGLDEEQKEELEELAEELLRRGVDEEELMRELTRLALELVSSSS
B7: il2ra_site2_3nfp_normal_mot_HHH_b1_05628_af2_000000064_0001_19_35_H_._HHH_b1_04724_af2_0001_0000200013_0000001_0_af2pred_0001_1_af2pred_swapped (protein)
chain: SSSSDEEEEVKELLREAKELLERGNPEEAEKVVRRAASIAAQLGDHELFAAASRLMEEIHNSSSS
B8: il2ra_site1_1z92_sap_17_mot_HHH_b1_05862_af2_000000270_0001_22_38_H_._HHH_b1_05895_0001_0000300010_0000001_0_0001_af2pred_0001_af2pred_1 (protein)
chain: DEEELIEKLEEAAKNRDVELLKELLEELLELLGTPAIEFMLRQFERKLRRDEEAAVKLVRRSVEL
B9: il2ra_site1_1z92_normal_mot_HHH_b1_06795_af2_000000041_0001_42_56_H_._2874ac36c98298a0dc4d99a960bb3065_0001_af2_0001_0000100013_0000001_0 (protein)
chain: DHRFLAEAVIRKIKRGDEESVEKLVERLSRAAGIPPEEVLKLLLELLRELGDPEAVEFIEELLRR
B10: il2ra_site2_2erj_normal_mot_HHH_b1_03833_000000078_0001_1_20_H_._HHH_b1_04418_0002_0000100001_0000001_0 (protein)
chain: SSSSDEEEEERVRELIEKLEELLERNDEERLHKLAWEVLRTLHELGDPRLARIIRAVAQFLSSSS
B11: il2ra_site2_2erj_normal_mot_HHH_b1_07067_af2_000000253_0001_18_33_H_._HEEHE_2110_af2_0001_0000200001_0000001_0_1_af2pred_0001_af2pred (protein)
chain: DAEELLRRYIEFVSEAADIKSFSIEEHNGKITVTVHGDEAEALTAALHIEFFAERAGIDLEVEVE
B12: il2ra_site2_2erj_normal_mot_HHH_b2_02727_000000149_0001_42_55_H_._HHH_b1_01540_0001_0000300008_0000001_1_af2pred_0001_1_af2pred_swapped (protein)
chain: SSSSDAERLAERAKRAAKIAEELGNPEEARLLLELVAEELEELGNPELAEELRELLQELKSSSSS
B13: il2ra_site2_2erj_normal_mot_15580975d4dd9e5733d814788d639b64_0001_000000240_0001_17_31_H_._HHH_b1_04687_af2_0001_0000700006_0000001_0 (protein)
chain: SSSSDEDEERIKELLEEAEELLKRGNPAQAQRVLAEAAELVHELGNEELAELINRLMQSLMSSSS
B14: il2ra_site2_2erj_sap_32_mot_HHH_b2_01204_af2_000000051_0001_19_34_H_._HHH_b1_05381_0001_0000300037_0000001_0_0001_af2pred_0001_1_af2pred_swapped (protein)
chain: SSSSDEEELEQLVERLAKELGASEEAKELAELSAKNLKEAGHSEEEIELFLRLLLELDTRRSSSS
B15: il2ra_site2_3nfp_normal_mot_HHH_b1_03557_000000106_0001_41_55_H_._HHH_b1_06663_0001_0000200010_0000001_0 (protein)
chain: SSSSSDEEIRELLEEIEEAIKRGDEERVRELLREVAQLIWEAGDHELFAKLAELLFALQRSSSSS
B16: il2ra_site1_1z92_normal_mot_0a69b5c9b02373fb877a90f2b4b0d8e1_0001_1_af2_000000257_0001_17_32_H_._5511cb2176c827d1feb3066af2f534d5_0001_af2_0001_0000300018_00000 … (protein)
chain: PEELAEKARELLENGNPEEAEKVLEKLAREQGDEEAFKRDLEKAERFLGNPEKALYALIKALARD
B17: il2ra_site2_2erj_normal_mot_HHH_b1_06608_000000059_0001_22_39_H_._HHH_b1_04589_0001_0000100001_0000001_0 (protein)
chain: SSSSDEEEVRELIKQAEELLEEGDPEKASEVVARAAFLVIELGNVELARRLFELAREIFELSSSS
B18: il2ra_site2_3nfp_normal_mot_HHH_b1_04787_000000220_0001_23_40_H_._HHH_b1_06980_af2_0001_0000300035_0000001_0 (protein)
chain: SSSSDVEELLREIEELLERGDTHEALELLEEAHKLALERNDEELVRLVLELYELIVELYDSSSSS
B19: il2ra_site1_2b5i_normal_mot_HHH_b2_04910_000000118_0001_1_19_H_._HHH_b1_06419_0001_0000300019_0000001_0_af2pred_0001_af2pred (protein)
chain: SSSSSEEARKILELIEEADKLFKEGNEEEARELLERAKELAEERGSESLLRLVEAALRELSSSSS

Molecular target: il2ra, P01589
Experiment: yeast display titration

Apparent Kd, inactive:
B1 no binding seen, B2 no binding seen, B3 no binding seen, B4 no binding seen, B5 no binding seen, B6 no binding seen, B7 no binding seen, B8 no binding seen, B9 no binding seen, B10 no binding seen, B11 no binding seen, B12 no binding seen, B13 no binding seen, B14 no binding seen, B15 no binding seen, B16 no binding seen, B17 no binding seen, B18 no binding seen, B19 no binding seen

Reference: PMC10163288
